From paper PMC12010950, “Discover the Power of Lithospermic Acid as Human Carbonic Anhydrase VA and Pancreatic Lipase Inhibitor Through In Silico and In Vitro Studies” (Archiv Der Pharmazie, 2025)

Biological target: hCA VB
Test: Stopped-flow CO2 hydrase assay
Assay type: biochemical, human
Conditions: mean from 3 assays, read-out: K i hCA VB
Experimental: An Applied Photophysics stopped‐flow instrument was used to assay the CA‐catalyzed CO2 hydration activity. […] The uncatalyzed rates were determined in the same manner and subtracted from the total observed rates. Stock solutions of the inhibitor (0.1 mM) were prepared in distilled−deionized water, and dilutions up to 0.01 nM were done thereafter with the assay buffer. Inhibitor and enzyme solutions were preincubated together for 15 min at room temperature before the assay, to allow for the formation of the E − I complex. The inhibition constants were obtained by nonlinear least‐squares methods using PRISM 3 and the Cheng–Prusoff equation as reported earlier and represent the mean from at least three different determinations. All CA isoforms were recombinant proteins obtained in house, as reported earlier.

## CC(=O)Nc1nnc(S(N)(=O)=O)s1 [AAZ, acetazolamide, reference compound]
  Ki: 63 ± 2 nM
